Some results were stated once for a whole list of compounds, not compound by compound.
The compounds below were run on pica feeding response in rats (assay: In Vivo Assay 2: Rat Pica Model of Emesis). Settings: Pica Response ED50 / neutrophilia-inhibition ED50, Assays 1+2.
From the text: However, a side effect of some PDE4 inhibitors in many species is emesis. Because many rat models of inflammation are well characterized, they have been used in procedures (see e.g. In Vivo Assay 1 above) to show beneficial anti-inflammatory effects of PDE 4 inhibitors. However rats have no emetic response (they have no vomit reflex), so that the relationship between beneficial anti-inflammatory effects of PDE 4 inhibitors and emesis is difficult to study directly in rats.
Pica feeding is a behavioural response to illness in rats wherein rats eat non-nutritive substances such as earth or in particular clay (e.g. kaolin) which may help to absorb toxins. Pica feeding can be induced by motion and chemicals (especially chemicals which are emetic in humans), and can be inhibited pharmacologically with drugs that inhibit emesis in humans. The Rat Pica Model, In Vivo Assay 2, can determine the level of pica response of rats to PDE 4 inhibition at pharmacologically relevant doses in parallel to in vivo anti-inflammatory Assays in (a separate set of) rats (e.g. In Vivo Assay 1 above). […] The Rat TI can for example be calculated as the ratio of a) the potentially-emetic Pica Response ED50 dose from Assay 2 to b) the rat anti-inflammatory ED50 dose (e.g. measured by rat neutrophilia-inhibition in eg In Vivo Assay 1), with larger TI ratios possibly indicating lower emesis at many anti-inflammatory doses. […]
At the end of 72 hours the rats are placed in clean cages and the food cups weighed. […] The food and clay cups and cage debris are weighed the following day and the total clay and food consumed that night by each individual animal is calculated.
A dose response is calculated by first converting the data into quantal response, where animals are either positive or negative for the pica response. A rat is “pica positive” if it consumes greater than or equal to 0.3 grams of clay […] using logistic regression performed by the Statistica software statistical package. A Pica Response ED50 value in mg per kg of body weight can then be calculated.

| Structure (SMILES) | Therapeutic Index (TI) in rats |
| --- | --- |
| CCNC(=O)c1cnc2c(cnn2CC)c1NC1CCOCC1 [Example 83, 1-Ethyl-N-ethyl-4-(tetrahydro-2H-pyran-4-ylamino)-1H-pyrazolo[3,4-b]pyridine-5-carboxamide] | > 2 |
| CCn1ncc2c(NC3CCOCC3)c(C(=O)Nc3ccc(F)cc3)cnc21 [Example 22, 1-Ethyl-N-(4-fluorophenyl)-4-(tetrahydro-2H-pyran-4-ylamino)-1H-pryazolo[3,4-b]pyridine-5-carboxamide] | > 2 |
| CCn1ncc2c(NC3CCOCC3)c(C(=O)NCc3ccc(C(F)(F)F)cc3)cnc21 [Example 155, 1-Ethyl-4-(tetrahydro-2H-pyran-4-ylamino)-N-[4-(trifluoromethyl)benzyl]-1H-pyrazolo[3,4-b]pyridine-5-carboxamide] | > 2 |
